The text below walks through data of publication PMC9960896.

Amino acid sequences for entries named in this document (tags omitted).
UniProt P37238: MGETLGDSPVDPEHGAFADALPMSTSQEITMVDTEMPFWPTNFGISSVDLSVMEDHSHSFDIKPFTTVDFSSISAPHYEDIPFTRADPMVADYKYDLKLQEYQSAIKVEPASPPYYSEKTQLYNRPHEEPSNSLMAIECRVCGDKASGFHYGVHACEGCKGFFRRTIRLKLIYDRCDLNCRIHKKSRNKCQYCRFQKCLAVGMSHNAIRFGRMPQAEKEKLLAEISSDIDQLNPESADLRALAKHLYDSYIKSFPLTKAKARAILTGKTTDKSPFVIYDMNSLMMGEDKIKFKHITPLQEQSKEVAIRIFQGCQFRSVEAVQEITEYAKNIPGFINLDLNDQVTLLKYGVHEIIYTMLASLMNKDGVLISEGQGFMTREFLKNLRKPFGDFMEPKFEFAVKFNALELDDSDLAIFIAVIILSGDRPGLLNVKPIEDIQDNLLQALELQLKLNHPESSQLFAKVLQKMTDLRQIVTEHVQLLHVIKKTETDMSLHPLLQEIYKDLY

The assay concerns the target FLAG-tagged PPARγ (UniProt P37238). Description: co-IP; 293T cells cotransfected with WT p53 (HIS-tagged) or p53S (MYC-tagged), HA-PGC–1α and FLAG-PPARγ; lysates in TEB150 buffer (50 mM HEPES pH 7.3, 150 mM NaCl, 2 mM MgCl2, 5 mM EGTA, 0.5% Triton X-100, 10% glycerol) for 6 h at 4 °C with anti-Tag or anti-Flag antibody cross-linked to agarose beads; immunoblot. (In western blotting, separated proteins are transferred to a membrane and probed.)

No constants are given. Whether binding was seen depends on the method and setting. In cells and extracts the contact can be indirect. Some entries that bind do so weakly or less than the wild type. Sequences can lack the tags named with a protein.

B1: HA-tagged PGC–1α (protein, UniProt O70343 1-797)
chain: MAWDMCSQDSVWSDIECAALVGEDQPLCPDLPELDLSELDVNDLDTDSFLGGLKWCSDQSEIISNQYNNEPANIFEKIDEENEANLLAVLTETLDSLPVDEDGLPSFDALTDGAVTTDNEASPSSMPDGTPPPQEAEEPSLLKKLLLAPANTQLSYNECSGLSTQNHAANHTHRIRTNPAIVKTENSWSNKAKSICQQQKPQRRPCSELLKYLTTNDDPPHTKPTENRNSSRDKCASKKKSHTQPQSQHAQAKPTTLSLPLTPESPNDPKGSPFENKTIERTLSVELSGTAGLTPPTTPPHKANQDNPFKASPKLKPSCKTVVPPPTKRARYSECSGTQGSHSTKKGPEQSELYAQLSKSSGLSRGHEERKTKRPSLRLFGDHDYCQSLNSKTDILINISQELQDSRQLDFKDASCDWQGHICSSTDSGQCYLRETLEASKQVSPCSTRKQLQDQEIRAELNKHFGHPCQAVFDDKSDKTSELRDGDFSNEQFSKLPVFINSGLAMDGLFDDSEDESDKLSYPWDGTQPYSLFDVSPSCSSFNSPCRDSVSPPKSLFSQRPQRMRSRSRSFSRHRSCSRSPYSRSRSRSPGSRSSSRSCYYYESSHYRHRTHRNSPLYVRSRSRSPYSRRPRYDSYEAYEHERLKRDEYRKEHEKRESERAKQRERQKQKAIEERRVIYVGKIRPDTTRTELRDRFEVFGEIEECTVNLRDDGDSYGFITYRYTCDAFAALENGYTLRRSNETDFELYFCGRKQFFKSNYADLDTNSDDFDPASTKSKYDSLDFDSLLKEAQRSLRR
On to B1, for which the binding entry is recorded as “binds”.
